Values of other authors, collected in patent US20060265028A1, “Hair growth” (QLT INC., priority 2003, published 2006).
At least one compound was matched to its structure with a doubt left.

System: terminal hairs
Conditions: 2% Minoxidil, after 4-12 months; cited from earlier work

Nc1cc(N2CCCCC2)nc(N)[n+]1[O-] [Minoxidil, minoxidil]
numbers of terminal hairs: increase in the numbers of terminal hairs
